# Results from one PubChem assay

Data taken from PubChem BioAssay AID1224904, deposited by Broad Institute (2016).

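Control-channel Italica luciferase signal in doxycycline-induced 293T-iDUX4 cells, given as percent activity after a 24-hour treatment. The test concentration is not given here. Percent change in the Italica control signal; more negative values mean stronger inhibition, which points to nonspecific, tet-on or cytotoxic effects.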

Values are in %. Common to all entries: measured here: Italica tet-on control reporter. This is a side read-out of the assay, for part of the compounds, not drawn at random.

| Compound | activity change (%) |
|---|---|
| `CN(C)C(=O)c1cccc(-c2ccc3c(c2)[C@@H]2[C@@H](CCN2C(=O)c2ccc4c(c2)OCO4)[C@@H](CO)N3)c1` | -48.17 |
| `COc1ccc2c3c(n(C)c2c1)[C@H](CO)N(C(C)=O)CC31CN(Cc2ccccc2OC)C1` | -82.23 |
| `O=C(C[C@H]1CC[C@H]2[C@@H](COC[C@H](O)CN2Cc2ccc3c(c2)OCO3)O1)Nc1ccc(-c2ccccc2)cc1` | -35.84 |
| `COc1ccc(C#Cc2ccc([C@H]3[C@H](CO)N4CCCCN(Cc5ccncc5)C[C@@H]34)cc2)cc1` | -2.663 |
| `COc1ccccc1CNC(=O)C[C@H]1C[C@H]2c3cc(NC(=O)c4cccnc4)ccc3O[C@H]2[C@H](CO)O1` | -4.212 |
| `CN(C)CC(=O)Nc1ccc2c(c1)[C@@H]1C[C@H](CC(=O)NCc3ccc(-c4ccccc4)cc3)O[C@@H](CO)[C@@H]1O2` | -15.47 |
| `COc1cccc(CN2[C@H](CO)[C@H](c3ccccc3)C23CN(C(=O)C2CCCCC2)C3)c1` | -1.834 |
| `COc1ccc(NC(=O)Nc2ccc3c(c2)[C@@H]2C[C@@H](CC(=O)N4CCc5ccccc5C4)O[C@@H](CO)[C@@H]2O3)cc1` | -24.92 |
| `C[C@H](CO)N1C[C@H](C)[C@H](CN(C)Cc2cccc(C(F)(F)F)c2)OCc2cnnn2CCCC1=O` | -4.88 |
| `O=C(C[C@H]1CC[C@H]2[C@@H](COC[C@H](O)CN2Cc2cccc(F)c2)O1)NCC1CCCCC1` | -0.779 |
| `C[C@@H]1CN([C@@H](C)CO)C(=O)c2c(c3ccccc3n2C)-c2ccccc2CO[C@H]1CN(C)S(=O)(=O)c1ccc([N+](=O)[O-])cc1` | -34.31 |
| `Cc1cccc(-c2ccc([C@H]3[C@H]4CN(S(=O)(=O)c5ccccc5F)CCCCN4[C@H]3CO)cc2)c1` | -10.32 |
| `CO[C@@H](C(=O)N(C)C[C@@H]1OCc2ccccc2-c2c(n(C)c3ccccc23)C(=O)N([C@H](C)CO)C[C@H]1C)c1ccccc1` | -2.241 |
| `CC(C)NC(=O)N1[C@@H](CO)[C@@H](c2ccccc2)C12CN(Cc1cc(F)cc(F)c1)C2` | -13.99 |
| `COc1ccc2c3c([nH]c2c1)[C@@H](CO)N(Cc1cc(F)ccc1F)CC31CN(C)C1` | -39.77 |
| `CCC(=O)N1CC2(C1)CN(Cc1cccc(Cl)c1)[C@H](CO)c1[nH]c3cc(OC)ccc3c12` | -66.29 |
| `C[C@@H]1CCCCO[C@@H](CN(C)C(=O)NC2CCCCC2)[C@H](C)CN([C@H](C)CO)C(=O)c2cc(NC(=O)Cc3ccccc3)ccc2O1` | -42.18 |
| `Cc1ccccc1-c1ccc(C2[C@@H]3CN(C(=O)c4ccc(F)cc4)C[C@H]2N3)cc1` (some centres undefined) | -2.256 |
| `O=C(Nc1cccc(F)c1)N1CCCCN2[C@@H](CO)[C@@H](c3ccc(C#Cc4cccnc4)cc3)[C@@H]2C1` | -11.5 |
| `O=C(Nc1ccc(C(F)(F)F)cc1)Nc1ccc2c(c1)[C@@H]1C[C@H](CC(=O)N3CCc4ccccc4C3)O[C@H](CO)[C@@H]1O2` | -73.03 |
| `O=C(C[C@H]1CC[C@@H]2[C@H](COC[C@H](O)CN2Cc2nccs2)O1)NCc1ccc(-c2ccccc2)cc1` | -16.9 |
| `COc1ccc(-c2ccc([C@@H]3[C@@H](CO)N4CCCCN(C(=O)c5ccc(F)cc5)C[C@@H]34)cc2)cc1` | -17.28 |
| `Cc1cccc(S(=O)(=O)N2CCCCN3[C@@H](CO)[C@H](c4ccc(C#C[C@H](C)O)cc4)[C@@H]3C2)c1` | -23.61 |
| `COc1ccc2c3c([nH]c2c1)[C@H](CO)N(Cc1ccc2c(c1)OCO2)CC31CCN(C(=O)Nc2c(C)noc2C)CC1` | -17.8 |
| `COc1ccc2c3c(n(C)c2c1)[C@H](CO)N(C(=O)C1CCOCC1)CC31CN(Cc2cccc(F)c2)C1` | -14.56 |
| `CCCNC(=O)N1CC[C@@H]2[C@@H](CO)N(C)c3ccc(-c4ccc(F)cc4)cc3[C@@H]21` | -43.25 |
| `O=S(=O)(c1ccccc1)N1CCCCN2[C@H](CO)[C@H](c3ccc(-c4ccccc4)cc3)[C@H]2C1` | 7.401 |
| `CO[C@H]1CN(C)C(=O)c2ccc(NC(=O)Nc3ccc(C(F)(F)F)cc3)cc2OC[C@H](C)NC[C@@H]1C` | -55.21 |
| `CCCNC(=O)N1[C@H](CO)[C@H](c2ccccc2-c2ccccc2F)[C@@H]1C#N` | -53.6 |
| `COc1cccc(-c2ccc(C3[C@@H]4CN(C(=O)Nc5ccccc5F)C[C@H]3N4)cc2)c1` (some centres undefined) | -15.63 |
| `COc1ccccc1NC(=O)N1CCCCN2[C@H](CO)[C@H](c3ccc(-c4cccc(F)c4)cc3)[C@@H]2C1` | -5.395 |
| `Cc1ccccc1S(=O)(=O)N1C[C@@H](O)COC[C@H]2O[C@@H](CC(=O)N3CCC(Cc4ccccc4)CC3)CC[C@@H]21` | -13.16 |
| `C[C@H]1CN([C@@H](C)CO)C(=O)c2c(c3ccccc3n2C)-c2ccccc2CO[C@@H]1CN(C)C(=O)Nc1ccc(-c2ccccc2)cc1` | -2.807 |
| `N#C[C@H]1[C@H](c2ccccc2-c2ccc(F)cc2)[C@@H](CO)N1C(=O)NC1CCCCC1` | -29.5 |
| `COc1ccc2c3c(n(C)c2c1)[C@@H](CO)N(S(=O)(=O)c1ccc(C)cc1)CC31CN(S(=O)(=O)c2ccc(C)cc2)C1` | -29.18 |
| `COc1cccc(NC(=O)N[C@H]2C=C[C@H](CC(=O)Nc3ccc(-c4ccccc4)cc3)O[C@@H]2CO)c1` | -18.41 |
| `COc1cccc(-c2ccc3c(c2)[C@@H]2[C@@H](CCN2C(=O)c2cccc(F)c2)[C@H](CO)N3)c1` | -61.19 |
| `COc1ccc(-c2ccc3c(c2)[C@H]2[C@H](CCN2S(=O)(=O)c2ccc(OC)cc2)[C@@H](CO)N3)cc1` | -52.91 |
| `COc1cccc(S(=O)(=O)Nc2ccc3c(c2)C(=O)N(C)C[C@@H](OC)[C@@H](C)CN(Cc2ccccc2F)[C@H](C)CO3)c1` | -13.16 |
| `O=C(C[C@H]1CC[C@@H]2[C@H](COC[C@@H](O)CN2Cc2nccs2)O1)NCc1ccc(-c2ccccc2)cc1` | -9.58 |
| `N#Cc1ccc(-c2ccc([C@@H]3[C@H]4CNC[C@@H]3N4Cc3cc(F)ccc3F)cc2)cc1` | -90.64 |
| `C[C@H]1CN([C@@H](C)CO)C(=O)c2c(c3ccccc3n2C)-c2ccccc2CO[C@H]1CN(C)C(=O)Cc1ccccc1` | -65.35 |
| `CN(C)C(=O)c1ccc(-c2ccc(C3[C@@H]4CN(Cc5ccc6c(c5)OCO6)C[C@H]3N4)cc2)cc1` (some centres undefined) | -26.86 |
| `Cc1ccc(S(=O)(=O)N2CC[C@H]3[C@@H](CO)N(C)c4ccc(-c5ccccc5F)cc4[C@H]32)cc1` | -3.422 |
| `OC[C@@H]1[C@@H](c2ccccc2)C2(CN(CC3CC3)C2)N1Cc1ccc(F)cc1` | 2.367 |
| `O=C(Nc1ccc(F)cc1)N1CC(=O)N2[C@H](CO)[C@H](c3ccc(C#Cc4cccnc4)cc3)[C@H]2C1` | -26.79 |
| `Cc1cccc(-c2ccc([C@H]3[C@@H](CO)N4CCCCN(S(=O)(=O)c5cccs5)C[C@@H]34)cc2)c1` | -76.66 |
| `O=C(Cc1cccnc1)N1CCCCN2[C@@H](CO)[C@H](c3ccc(C#CC4CCCC4)cc3)[C@@H]2C1` | -18.47 |
| `COc1cccc(S(=O)(=O)N2CC3(CN(C(=O)Nc4ccc(F)cc4)[C@H](CO)c4[nH]c5cc(OC)ccc5c43)C2)c1` | -58.08 |
| `Cc1cccc(S(=O)(=O)N2C[C@@H]3N[C@H](C2)C3c2ccc(-c3cccc(C(=O)N(C)C)c3)cc2)c1` (some centres undefined) | -17.13 |
| `Cc1cccc(-c2ccc([C@@H]3[C@H](CO)N4C(=O)CN(C(=O)c5ccccc5)C[C@@H]34)cc2)c1` | -8.109 |
| `CC(C)(C)[S@](=O)N1Cc2cc(C(=O)N3CCc4ccccc4C3)nc(-c3cccc(-c4cncnc4)c3)c2[C@@H]1CCO` | -0.8441 |

The first 3 entries again:

* CN(C)C(=O)c1cccc(-c2ccc3c(c2)[C@@H]2[C@@H](CCN2C(=O)c2ccc4c(c2)OCO4)[C@@H](CO)N3)c1 | activity change -48.17%
* COc1ccc2c3c(n(C)c2c1)[C@H](CO)N(C(C)=O)CC31CN(Cc2ccccc2OC)C1 | activity change -82.23%
* O=C(C[C@H]1CC[C@H]2[C@@H](COC[C@H](O)CN2Cc2ccc3c(c2)OCO3)O1)Nc1ccc(-c2ccccc2)cc1 | activity change -35.84%